Laboratory results from paper PMC12712664.
These are yes or no findings as the source states them, for the method shown. In cells and extracts the contact can be indirect. Some entries that bind do so weakly or less than the wild type.

By UniProt entry, the sequences of proteins in these tests, tags left out.
UniProt P46937: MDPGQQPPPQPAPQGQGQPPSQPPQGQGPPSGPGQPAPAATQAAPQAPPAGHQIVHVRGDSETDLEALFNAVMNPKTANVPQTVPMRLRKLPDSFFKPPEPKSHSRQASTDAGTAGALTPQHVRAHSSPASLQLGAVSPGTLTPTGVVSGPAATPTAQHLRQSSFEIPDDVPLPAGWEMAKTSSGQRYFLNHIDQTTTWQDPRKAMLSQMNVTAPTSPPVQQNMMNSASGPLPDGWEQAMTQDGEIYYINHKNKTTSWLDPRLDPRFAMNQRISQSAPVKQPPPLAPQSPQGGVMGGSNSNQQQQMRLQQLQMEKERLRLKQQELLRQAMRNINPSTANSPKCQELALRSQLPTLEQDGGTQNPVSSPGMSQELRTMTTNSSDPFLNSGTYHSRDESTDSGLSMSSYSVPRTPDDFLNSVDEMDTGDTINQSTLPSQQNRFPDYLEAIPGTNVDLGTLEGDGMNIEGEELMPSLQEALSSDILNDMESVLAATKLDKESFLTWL
UniProt P49407: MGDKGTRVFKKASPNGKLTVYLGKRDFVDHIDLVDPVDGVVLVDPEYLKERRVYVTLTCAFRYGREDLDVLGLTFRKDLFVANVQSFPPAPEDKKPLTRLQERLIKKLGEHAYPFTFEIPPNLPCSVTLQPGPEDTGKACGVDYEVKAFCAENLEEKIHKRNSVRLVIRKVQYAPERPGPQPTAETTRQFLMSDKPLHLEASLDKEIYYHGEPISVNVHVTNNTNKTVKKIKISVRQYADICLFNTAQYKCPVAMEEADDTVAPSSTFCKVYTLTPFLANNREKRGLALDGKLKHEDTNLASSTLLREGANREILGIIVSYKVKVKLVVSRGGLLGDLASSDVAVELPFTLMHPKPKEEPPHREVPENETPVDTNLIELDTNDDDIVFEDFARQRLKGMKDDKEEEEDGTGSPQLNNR

Target: Yes-associated protein (human (endogenous in HCT8)) (UniProt P46937)
Experiment: co-IP; endogenous YAP immunoprecipitated with anti-YAP antibody (normal IgG as control), protein A/G-agarose beads, RIPA lysate, overnight at 4°C; β-arr1 detected by Western blot; cells untreated or treated with oxaliplatin (legend: HCT8, 1 μM, 24 h; methods: 293T, 10 μM, 24 h)

β-arrestin1 (from UniProt P49407 1-418)
binding: binds
